Assay results as given in the supplement of paper PMC12595434, “Development of retinoid nuclear receptor pathway antagonists through targeting aldehyde dehydrogenase 1A3” (iScience, 2025).
Some of the results follow. This is a noisy data set.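 Many melting curves are irregular; where none melted, Tm was taken as 64 °C.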

The chains behind the UniProt entries cited, without tags or fusion partners. Where a name states a change or a piece, a line headed by the entry shows the natural chain unless it says otherwise.
UniProt Q99417: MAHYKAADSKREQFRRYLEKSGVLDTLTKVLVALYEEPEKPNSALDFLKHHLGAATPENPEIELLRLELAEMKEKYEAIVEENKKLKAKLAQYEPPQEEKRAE
UniProt Q96IX5: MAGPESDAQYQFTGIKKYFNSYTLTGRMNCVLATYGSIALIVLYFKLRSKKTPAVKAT
UniProt Q96RE7: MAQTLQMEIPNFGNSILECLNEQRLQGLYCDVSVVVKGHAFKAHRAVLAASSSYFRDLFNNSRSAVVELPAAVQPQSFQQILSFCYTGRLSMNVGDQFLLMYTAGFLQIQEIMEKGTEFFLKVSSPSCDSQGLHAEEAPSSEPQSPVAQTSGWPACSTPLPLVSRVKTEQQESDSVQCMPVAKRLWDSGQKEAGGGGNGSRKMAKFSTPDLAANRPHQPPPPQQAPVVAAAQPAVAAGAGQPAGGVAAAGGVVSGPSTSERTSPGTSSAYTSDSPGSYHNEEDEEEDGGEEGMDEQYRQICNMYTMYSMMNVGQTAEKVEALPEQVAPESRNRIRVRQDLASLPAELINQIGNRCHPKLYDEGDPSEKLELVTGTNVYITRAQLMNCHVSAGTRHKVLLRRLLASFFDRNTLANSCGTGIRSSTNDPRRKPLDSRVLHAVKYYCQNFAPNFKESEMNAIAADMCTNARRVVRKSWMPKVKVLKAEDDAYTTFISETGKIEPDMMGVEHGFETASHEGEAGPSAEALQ
UniProt Q96K76: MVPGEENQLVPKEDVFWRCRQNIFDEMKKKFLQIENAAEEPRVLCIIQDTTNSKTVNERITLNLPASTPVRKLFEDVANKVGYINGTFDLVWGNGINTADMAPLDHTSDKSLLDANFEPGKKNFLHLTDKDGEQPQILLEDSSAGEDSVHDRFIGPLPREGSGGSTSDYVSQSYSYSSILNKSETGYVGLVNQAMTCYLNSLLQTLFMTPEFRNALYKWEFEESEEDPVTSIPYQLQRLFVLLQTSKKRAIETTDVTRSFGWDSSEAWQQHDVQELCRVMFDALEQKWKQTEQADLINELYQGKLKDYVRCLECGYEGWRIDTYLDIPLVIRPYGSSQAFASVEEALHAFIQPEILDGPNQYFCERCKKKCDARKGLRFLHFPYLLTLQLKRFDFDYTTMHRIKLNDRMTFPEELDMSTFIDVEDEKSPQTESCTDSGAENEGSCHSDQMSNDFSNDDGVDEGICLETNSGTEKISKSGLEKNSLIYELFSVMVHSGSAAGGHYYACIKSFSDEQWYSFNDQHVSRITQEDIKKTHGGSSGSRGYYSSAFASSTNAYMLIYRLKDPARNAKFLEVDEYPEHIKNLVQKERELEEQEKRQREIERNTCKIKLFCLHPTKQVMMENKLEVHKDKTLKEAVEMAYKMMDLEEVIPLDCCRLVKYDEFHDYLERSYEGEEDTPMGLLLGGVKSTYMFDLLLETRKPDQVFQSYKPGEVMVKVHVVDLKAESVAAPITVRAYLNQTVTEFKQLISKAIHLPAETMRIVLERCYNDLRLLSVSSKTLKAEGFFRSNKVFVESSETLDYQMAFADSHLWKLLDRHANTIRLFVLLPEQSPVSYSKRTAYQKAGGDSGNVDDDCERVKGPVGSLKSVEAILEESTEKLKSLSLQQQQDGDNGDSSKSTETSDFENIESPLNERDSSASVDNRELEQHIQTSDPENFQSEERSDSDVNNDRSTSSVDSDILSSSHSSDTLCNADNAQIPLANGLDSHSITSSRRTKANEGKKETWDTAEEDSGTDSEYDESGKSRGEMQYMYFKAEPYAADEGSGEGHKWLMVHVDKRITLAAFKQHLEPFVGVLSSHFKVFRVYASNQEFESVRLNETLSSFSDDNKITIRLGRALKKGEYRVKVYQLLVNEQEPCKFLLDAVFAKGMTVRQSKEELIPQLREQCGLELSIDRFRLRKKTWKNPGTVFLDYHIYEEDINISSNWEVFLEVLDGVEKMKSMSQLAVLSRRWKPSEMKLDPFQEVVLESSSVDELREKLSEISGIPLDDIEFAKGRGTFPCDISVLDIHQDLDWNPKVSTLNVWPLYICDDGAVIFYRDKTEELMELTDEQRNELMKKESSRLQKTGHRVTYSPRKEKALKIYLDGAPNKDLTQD
UniProt Q96J02: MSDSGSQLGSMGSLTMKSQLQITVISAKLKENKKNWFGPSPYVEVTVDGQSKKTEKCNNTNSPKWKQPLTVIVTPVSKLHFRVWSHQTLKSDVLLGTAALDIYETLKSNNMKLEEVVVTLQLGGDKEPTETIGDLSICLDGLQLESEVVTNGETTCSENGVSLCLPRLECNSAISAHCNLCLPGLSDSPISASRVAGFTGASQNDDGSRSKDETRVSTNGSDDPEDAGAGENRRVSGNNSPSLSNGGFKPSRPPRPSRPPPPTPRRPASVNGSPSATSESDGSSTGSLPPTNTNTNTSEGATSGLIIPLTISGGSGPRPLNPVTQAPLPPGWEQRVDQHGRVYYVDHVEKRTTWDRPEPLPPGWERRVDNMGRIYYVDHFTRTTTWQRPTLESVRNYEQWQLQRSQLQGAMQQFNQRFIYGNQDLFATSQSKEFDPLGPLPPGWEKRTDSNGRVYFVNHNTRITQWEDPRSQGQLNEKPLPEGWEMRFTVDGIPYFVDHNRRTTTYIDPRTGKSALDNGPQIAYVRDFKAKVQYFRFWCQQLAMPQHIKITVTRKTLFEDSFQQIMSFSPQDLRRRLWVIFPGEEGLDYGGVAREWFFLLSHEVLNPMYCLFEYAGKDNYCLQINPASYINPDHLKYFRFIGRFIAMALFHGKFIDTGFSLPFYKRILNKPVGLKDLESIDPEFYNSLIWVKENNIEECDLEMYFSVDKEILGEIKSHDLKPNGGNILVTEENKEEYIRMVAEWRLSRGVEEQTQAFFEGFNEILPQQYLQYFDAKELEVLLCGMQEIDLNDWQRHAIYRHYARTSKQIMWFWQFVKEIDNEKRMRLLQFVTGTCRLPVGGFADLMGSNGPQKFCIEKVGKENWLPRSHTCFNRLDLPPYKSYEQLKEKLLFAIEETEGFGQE
UniProt Q96FZ7: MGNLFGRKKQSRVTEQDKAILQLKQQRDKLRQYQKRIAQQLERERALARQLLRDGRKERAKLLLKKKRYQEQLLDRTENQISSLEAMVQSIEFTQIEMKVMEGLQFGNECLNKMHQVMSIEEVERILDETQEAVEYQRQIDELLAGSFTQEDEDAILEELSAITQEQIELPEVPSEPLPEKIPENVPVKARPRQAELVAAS
UniProt Q96HQ2: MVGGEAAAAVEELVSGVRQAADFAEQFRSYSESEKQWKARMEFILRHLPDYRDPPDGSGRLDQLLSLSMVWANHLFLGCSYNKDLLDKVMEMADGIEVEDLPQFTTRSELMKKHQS
UniProt Q96IU4: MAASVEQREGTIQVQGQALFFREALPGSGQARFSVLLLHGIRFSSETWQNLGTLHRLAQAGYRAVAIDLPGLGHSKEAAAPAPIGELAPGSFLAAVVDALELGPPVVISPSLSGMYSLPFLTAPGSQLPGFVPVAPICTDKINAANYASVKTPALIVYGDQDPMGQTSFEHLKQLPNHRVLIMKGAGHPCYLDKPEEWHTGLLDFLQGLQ
UniProt Q96EU7: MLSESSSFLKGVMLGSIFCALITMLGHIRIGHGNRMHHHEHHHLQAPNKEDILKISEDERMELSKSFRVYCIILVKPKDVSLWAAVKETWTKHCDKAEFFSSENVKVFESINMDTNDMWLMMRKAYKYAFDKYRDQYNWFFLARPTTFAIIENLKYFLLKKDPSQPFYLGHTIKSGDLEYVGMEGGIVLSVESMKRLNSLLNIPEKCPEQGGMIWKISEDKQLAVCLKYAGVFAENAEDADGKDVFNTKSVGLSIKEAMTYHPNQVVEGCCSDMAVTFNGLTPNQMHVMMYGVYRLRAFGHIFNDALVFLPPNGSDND
UniProt Q96NT0: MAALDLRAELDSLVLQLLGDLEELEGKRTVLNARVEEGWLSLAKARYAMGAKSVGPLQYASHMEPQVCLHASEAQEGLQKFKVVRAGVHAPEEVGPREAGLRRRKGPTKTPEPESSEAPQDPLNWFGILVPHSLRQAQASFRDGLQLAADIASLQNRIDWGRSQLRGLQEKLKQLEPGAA
UniProt Q96HA1, whole entry: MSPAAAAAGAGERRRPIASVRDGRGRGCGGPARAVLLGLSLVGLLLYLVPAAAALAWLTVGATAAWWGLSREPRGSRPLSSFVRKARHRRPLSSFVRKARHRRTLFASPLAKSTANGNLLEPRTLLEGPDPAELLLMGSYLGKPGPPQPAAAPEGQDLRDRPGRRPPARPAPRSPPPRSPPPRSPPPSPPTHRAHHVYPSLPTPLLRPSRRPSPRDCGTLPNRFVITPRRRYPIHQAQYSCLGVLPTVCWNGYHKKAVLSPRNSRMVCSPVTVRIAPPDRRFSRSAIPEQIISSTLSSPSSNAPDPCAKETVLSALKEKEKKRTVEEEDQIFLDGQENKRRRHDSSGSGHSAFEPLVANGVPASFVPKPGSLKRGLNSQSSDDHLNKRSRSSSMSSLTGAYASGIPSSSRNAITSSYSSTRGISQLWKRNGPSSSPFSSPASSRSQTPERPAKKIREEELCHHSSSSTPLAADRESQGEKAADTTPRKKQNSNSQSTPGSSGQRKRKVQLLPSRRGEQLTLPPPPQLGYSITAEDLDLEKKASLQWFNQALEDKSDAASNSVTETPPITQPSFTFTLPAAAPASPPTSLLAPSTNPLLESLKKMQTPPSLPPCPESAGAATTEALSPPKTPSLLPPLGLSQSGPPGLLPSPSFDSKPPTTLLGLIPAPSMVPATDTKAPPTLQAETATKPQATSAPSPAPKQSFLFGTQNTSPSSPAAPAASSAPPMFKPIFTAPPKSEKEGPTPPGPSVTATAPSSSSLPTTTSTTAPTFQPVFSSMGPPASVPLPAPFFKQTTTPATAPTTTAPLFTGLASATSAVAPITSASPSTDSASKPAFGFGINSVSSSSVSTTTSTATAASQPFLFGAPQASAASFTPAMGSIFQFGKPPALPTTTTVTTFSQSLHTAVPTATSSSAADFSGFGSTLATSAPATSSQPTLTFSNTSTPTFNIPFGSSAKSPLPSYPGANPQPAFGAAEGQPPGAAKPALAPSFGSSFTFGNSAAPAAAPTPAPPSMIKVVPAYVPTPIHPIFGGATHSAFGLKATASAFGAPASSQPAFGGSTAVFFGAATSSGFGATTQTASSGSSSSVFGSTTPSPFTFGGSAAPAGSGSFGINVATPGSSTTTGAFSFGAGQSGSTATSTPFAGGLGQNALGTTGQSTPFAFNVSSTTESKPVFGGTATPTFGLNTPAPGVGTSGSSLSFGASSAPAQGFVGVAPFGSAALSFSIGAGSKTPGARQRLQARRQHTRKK
UniProt Q96RG2: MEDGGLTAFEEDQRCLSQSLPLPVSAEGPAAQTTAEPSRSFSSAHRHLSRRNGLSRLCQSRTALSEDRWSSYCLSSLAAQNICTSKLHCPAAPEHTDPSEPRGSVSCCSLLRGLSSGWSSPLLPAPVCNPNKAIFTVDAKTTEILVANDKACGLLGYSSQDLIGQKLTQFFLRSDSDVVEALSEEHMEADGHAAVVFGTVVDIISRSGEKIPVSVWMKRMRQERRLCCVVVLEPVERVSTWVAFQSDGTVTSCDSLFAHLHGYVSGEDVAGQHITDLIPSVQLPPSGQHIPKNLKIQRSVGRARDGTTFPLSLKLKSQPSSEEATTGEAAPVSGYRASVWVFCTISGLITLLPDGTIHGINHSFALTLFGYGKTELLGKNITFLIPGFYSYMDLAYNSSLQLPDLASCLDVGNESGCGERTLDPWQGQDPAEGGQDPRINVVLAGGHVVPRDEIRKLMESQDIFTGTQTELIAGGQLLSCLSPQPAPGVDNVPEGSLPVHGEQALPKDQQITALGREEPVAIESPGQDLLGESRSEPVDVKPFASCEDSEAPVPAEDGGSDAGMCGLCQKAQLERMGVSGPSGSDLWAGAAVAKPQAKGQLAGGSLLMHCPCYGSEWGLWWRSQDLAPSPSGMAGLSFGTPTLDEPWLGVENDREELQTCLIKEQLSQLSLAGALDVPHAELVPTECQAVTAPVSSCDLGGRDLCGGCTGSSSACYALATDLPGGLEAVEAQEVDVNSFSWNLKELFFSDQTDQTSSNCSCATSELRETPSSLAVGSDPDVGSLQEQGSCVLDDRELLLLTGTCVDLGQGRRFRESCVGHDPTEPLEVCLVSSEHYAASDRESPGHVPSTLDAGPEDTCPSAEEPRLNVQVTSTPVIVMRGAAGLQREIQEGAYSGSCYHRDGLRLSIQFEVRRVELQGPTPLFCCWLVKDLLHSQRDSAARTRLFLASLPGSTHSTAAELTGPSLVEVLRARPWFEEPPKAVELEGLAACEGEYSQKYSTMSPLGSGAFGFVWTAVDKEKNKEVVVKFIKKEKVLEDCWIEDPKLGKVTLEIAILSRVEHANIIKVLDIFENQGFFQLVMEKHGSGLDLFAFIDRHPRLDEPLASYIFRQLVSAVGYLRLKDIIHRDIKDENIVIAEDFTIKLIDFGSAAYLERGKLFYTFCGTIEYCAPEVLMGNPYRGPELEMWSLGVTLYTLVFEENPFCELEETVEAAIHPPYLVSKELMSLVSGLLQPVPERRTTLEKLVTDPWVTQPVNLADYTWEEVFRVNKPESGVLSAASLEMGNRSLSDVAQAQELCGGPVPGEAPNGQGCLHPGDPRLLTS

Compound: CCc1cnccc1C(=O)Nc1cc2c(cc1F)NC(=O)CC2
Test: melting temperature shift (DMSO Tm minus MBE1-treated Tm) in cellular thermal proteome profiling; higher = less thermal stabilization by MBE1 (negative = stabilized by MBE1)
Details: A375

Target	melting temperature shift (MBE1 concentration: 100 nM)	melting temperature shift (MBE1 concentration: 1 uM)
UniProt Q99417	0.299 °C	-2.36 °C
FAM129B (UniProt Q96TA1)	-0.496 °C	0.244 °C
USMG5 (UniProt Q96IX5)	-1.44 °C	-3.39 °C
NACC1 (UniProt Q96RE7)	-0.805 °C	-0.0941 °C
USP47 (UniProt Q96K76)	-0.654 °C	-0.833 °C
MASTL (UniProt Q96GX5)	-1.62 °C	-1.37 °C
ITCH (UniProt Q96J02)	0.188 °C	0.0188 °C
CHMP6 (UniProt Q96FZ7)	-0.498 °C	-0.711 °C
UniProt Q96KM6	-0.296 °C	0.679 °C
PAFAH2 (UniProt Q99487)	-0.829 °C	-0.165 °C
MRPL48 (UniProt Q96GC5)	1.2 °C	-1.13 °C
IFT140 (UniProt Q96RY7)	-1.91 °C	-1.62 °C
UniProt Q96HQ2	-2.96 °C	-2.96 °C
ABHD14B (UniProt Q96IU4)	0.293 °C	0.488 °C
CDK5RAP3 (UniProt Q96JB5)	1.17 °C	0.318 °C
ZFP91 (UniProt Q96JP5)	-0.409 °C	1.06 °C
UniProt Q96L93	-0.607 °C	0.282 °C
UniProt Q96RT6	0.391 °C	-0.721 °C
C1GALT1C1 (UniProt Q96EU7)	-0.469 °C	-0.101 °C
SIN3A (UniProt Q96ST3)	-0.666 °C	-0.141 °C
CCDC115 (UniProt Q96NT0)	-1.39 °C	0.643 °C
UniProt Q96HA1	0.763 °C	0.965 °C
RPS6KC1 (UniProt Q96S38)	-0.0177 °C	0.313 °C
TP53RK (UniProt Q96S44)	0.154 °C	0.14 °C
PASK (UniProt Q96RG2)	0.678 °C	0.366 °C

As entered above.
In melting temperature shift (MBE1 concentration: 1 uM), CCDC115 (UniProt Q96NT0) shows 0.643 °C
In melting temperature shift (MBE1 concentration: 100 nM), ZFP91 (UniProt Q96JP5) shows -0.409 °C
